From article PMC6429432 come the findings set out here.

No constants are given. Whether binding was seen depends on the method and setting. In cells and extracts the contact can be indirect. Binding can be weak; no strength is given. Sequences can lack the tags named with a protein.

In the assay the target is TaGAPCp1 fused to the N-terminal fragment of yellow fluorescent protein (pSPYNE-TaGAPCp1) (wheat (Triticum aestivum, Chinese Spring)). Kind of assay: split reporter; BiFC: pSPYNE-TaGAPCp1 and pSPYCE-Cyt b6f co-infiltrated in tobacco by Agrobacterium, leaf protoplasts, YFP fluorescence (500-570 nm) by confocal laser scanning microscopy.

B1: Cytochrome b6-f complex iron-sulfur subunit (Cyt b6f) fused to the C-terminal fragment of yellow fluorescent protein (pSPYCE-Cyt b6f) (protein, UniProt Q7X9A6 50-222)
chain: ADRVPDMSKRELMNLLLLGAISLPTFGMLVPYGSFLVPAGSGSNAGGVAAKDKLGNDILVEDWLKTHGPNDRTLAQGLKGDPTYLVVESDKTLATYGINAVCTHLGCVVPWNAAENKFLCPCHGSQYNNQGKVVRGPAPLSLALVHADVDDGKVVFVPWVETDFRTGDNPWWK
As for B1, the binding entry was “binds”.
